Test results reported in article PMC3653402.
These are yes or no findings as the source states them, for the method shown. In cells and extracts the contact can be indirect. Here binding means that the protein was enriched with, or labelled near, the bait; the list need not be complete. Tags and fused reporters may be left off the sequences shown.

Amino acid sequences for entries named in this document (tags omitted).
UniProt Q7KN62: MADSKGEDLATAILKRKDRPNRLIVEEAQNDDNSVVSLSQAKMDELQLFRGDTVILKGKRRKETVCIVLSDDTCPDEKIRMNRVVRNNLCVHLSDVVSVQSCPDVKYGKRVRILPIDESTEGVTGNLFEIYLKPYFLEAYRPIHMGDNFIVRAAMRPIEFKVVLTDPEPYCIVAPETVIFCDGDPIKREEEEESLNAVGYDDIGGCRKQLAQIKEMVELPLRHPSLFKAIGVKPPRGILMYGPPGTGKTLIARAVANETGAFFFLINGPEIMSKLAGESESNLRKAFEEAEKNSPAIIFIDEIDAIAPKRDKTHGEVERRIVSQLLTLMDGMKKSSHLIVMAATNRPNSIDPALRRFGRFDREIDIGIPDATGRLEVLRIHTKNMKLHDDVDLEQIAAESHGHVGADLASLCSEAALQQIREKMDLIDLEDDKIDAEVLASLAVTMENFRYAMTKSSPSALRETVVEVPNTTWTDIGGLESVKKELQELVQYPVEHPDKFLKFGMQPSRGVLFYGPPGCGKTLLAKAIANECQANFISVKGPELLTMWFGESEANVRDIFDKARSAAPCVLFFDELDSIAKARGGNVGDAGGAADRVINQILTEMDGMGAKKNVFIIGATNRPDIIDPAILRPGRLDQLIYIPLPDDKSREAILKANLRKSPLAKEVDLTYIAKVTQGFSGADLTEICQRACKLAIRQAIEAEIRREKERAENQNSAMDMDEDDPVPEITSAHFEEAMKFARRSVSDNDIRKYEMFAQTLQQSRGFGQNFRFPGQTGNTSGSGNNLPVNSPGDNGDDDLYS

T1: Drosophila Hrd1 fused to a C-terminal TAP tag (Drosophila) (UniProt Q95SP2)
T1 sequence: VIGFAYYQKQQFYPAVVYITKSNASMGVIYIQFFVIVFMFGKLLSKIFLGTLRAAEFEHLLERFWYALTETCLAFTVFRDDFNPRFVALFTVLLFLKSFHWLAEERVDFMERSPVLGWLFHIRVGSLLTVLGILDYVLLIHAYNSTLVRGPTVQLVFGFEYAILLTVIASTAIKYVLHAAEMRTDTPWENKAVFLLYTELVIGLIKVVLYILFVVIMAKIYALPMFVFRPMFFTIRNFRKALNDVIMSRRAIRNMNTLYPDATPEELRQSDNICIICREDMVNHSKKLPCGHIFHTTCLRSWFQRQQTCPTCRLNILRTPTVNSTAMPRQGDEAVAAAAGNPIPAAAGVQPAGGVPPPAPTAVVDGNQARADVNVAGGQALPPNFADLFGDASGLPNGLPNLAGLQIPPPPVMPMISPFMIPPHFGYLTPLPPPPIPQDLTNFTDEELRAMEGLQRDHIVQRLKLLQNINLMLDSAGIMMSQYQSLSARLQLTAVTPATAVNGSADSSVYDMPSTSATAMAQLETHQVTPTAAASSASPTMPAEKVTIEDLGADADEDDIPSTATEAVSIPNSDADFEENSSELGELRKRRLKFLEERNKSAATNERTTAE

B1: dNpl4 (protein, UniProt Q9VBP9 1-652)
chain: MACAPLLLEQFIYKKRNFAYAFVRHRLFVLCKQSLIRVQSAEGIKRIEISPKSNLKHLYDSVQNALKVDGFGLFKERNFLTELQASGSQLVGTSLRHGDMVYLKQMAGTSSRRTSTTVLDSQAFKTSTISNPNSARPSFNVIEDDVDQALSKADGTIKRERDSKLCHHNANGRCVHCSALEPYDESYLKEHNIKHLSFHSYIRKQTSGMDQGKYFVFDDINCRIKPGCREHPPWPKGICSKCQPSAITLNRQTYRHVDNVMFENTKIVERFLNYWRTTGHQRMGYLYGTYEQHTDVPLGIRAKVAAIYEPPQESTRDSINIQPDEFADDVDAVASALGLKKIGWIFTDLITDDASIGTVKQIRGIESHFITAQECITAGELQNRHPNPCKYASNGVFGSKFVTICVTGDKTKQVHMEGYAVSAQCMALVRDNCLIPTKDAPELGYVRESTDKQYVPDVFYKEKDLYGNEVQRLARPLPVEYLLVDVPASTPLQPIYTFTEYDKRQPFPIENRYIDGHLQDFNALSCYLSAWGEEEFLEAISDFHLLVYLYKMDMLPLRQHMGPLLEAVRTKNPNQAAQFKVVDVWKLLESLIQASSGGSGGTTSYPSGGASASAGASGSEAMDLDANTWTCNHCTFINRGELTSCEICSLPR
B2: dUfd1 (protein, UniProt Q9VTF9 1-316)
chain: MFHFSGFNMMFPEGRNFHANYKCFSVSMLPGNERTDVEKGGKIIMPPSALDTLTRLNVEYPMLFKLTNVKKSRSSHAGVLEFVADEGKCYLPHWMMENLLLGEGDILNIESVSLPVATFSKFQPHSTDFLDITNPKAVLENALRNFACLTRGDVIAIKYNKKVYELCVLETKPGNAVSIIECDMNVEFEAPVGYKDHSETQASGSGQQGAAGTVGGEIAGATNAILEEVVETFKGSGVRLDGKKKKESQLETPVVKKVLARGVPDYDFQFGLIRFDRNIRPISDRSQEDDAVAGNADASDAESFHGTGFSMKKTRK

target: T1, Drosophila Hrd1 fused to a C-terminal TAP tag (Drosophila); test: affinity purification with mass spectrometry; tandem affinity purification of dHrd1-TAP from 1% digitonin lysates of S2/dHrd1-TAP cells: human IgG-Sepharose 16 h at 4°C, TEV elution, anti-FLAG agarose 5 h at 4°C, washes in 0.1% digitonin, elution with FLAG peptide; SDS-PAGE, Colloidal Blue, bands identified by tandem mass spectrometry

binding, binds:
Ter94 (from UniProt Q7KN62 1-801)
dUbiquilin (Drosophila (endogenous in S2 cells))
RE16341p (Drosophila (endogenous in S2 cells))
dOs9 (Drosophila (endogenous in S2 cells))
dUbxd8 (Drosophila (endogenous in S2 cells))
DHR23 (Drosophila (endogenous in S2 cells))
dUbxd2 (Drosophila (endogenous in S2 cells))
dSel1 (Drosophila (endogenous in S2 cells))
dUbc7 (Drosophila (endogenous in S2 cells)) (enzyme)
dHerp (Drosophila (endogenous in S2 cells))
B1
B2
